# PubChem BioAssay AID1259405 – NCATS | 2018
# Screen: 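Mouse-designed siRNAs used to find CHO productivity engineering targets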 (primary screen)
# System: Chinese hamster CHO-K1 ovary cells with stable secreted eGFP expression
# Reagents: single siRNA against mouse genes, 0.8 pmol siRNA per well (2 µl of 400 nM stock)
# Time to read-out: 3 days
# Measurement: 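Percent of the per-plate non-targeting control median for intracellular GFP per well by laser scanning cytometry and for cell viability by ATP luminescence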
# Direction: GFP, % of control: higher = more GFP per well, higher productivity; viability (ATP), % of control: higher = more viable cells (more ATP)
# Hit rule: 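a knock-down is called active if GFP reaches 120% or more of non-targeting control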
# In all, the deposit lists about 50,000 reagents; below is an unselected part. In the full data, about 4,000 (8%) got an active call. 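Mouse siRNA library applied to hamster cells; one well for each siRNA.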 A number with no mark means an inactive call. The numbers tell different reagents against one gene apart.
gene,reagent,"GFP, % of control","viability (ATP), % of control"
Vps26a (GeneID 30930),1,41.5,47.4
Vps26a (GeneID 30930),2,65.7,79.9
Vps26a (GeneID 30930),3,68.1,56.6
Sf3a2 (GeneID 20222),1,74.9,77.8
Sf3a2 (GeneID 20222),2,77.8,77.7
Sf3a2 (GeneID 20222),3,57.5,50.5
Dpagt1 (GeneID 13478),1,84.3,92.6
Dpagt1 (GeneID 13478),2,50.2,118
Dpagt1 (GeneID 13478),3,104,112
Kdm3b (GeneID 277250),1,131 (active),117
Kdm3b (GeneID 277250),2,82.3,80.4
Kdm3b (GeneID 277250),3,143 (active),116
Ankmy2 (GeneID 217473),1,138 (active),105
Ankmy2 (GeneID 217473),2,45.2,61.9
Ankmy2 (GeneID 217473),3,112,55.4
Or1e17 (GeneID 18321),1,74.3,62.6
Or1e17 (GeneID 18321),2,113,66.1
Or1e17 (GeneID 18321),3,41.7,80.4
Oca2 (GeneID 18431),1,123 (active),87.7
Oca2 (GeneID 18431),2,152 (active),111
Oca2 (GeneID 18431),3,105,92.6
Or11g1 (GeneID 258662),1,37.9,47.6
Or11g1 (GeneID 258662),2,88.1,85.1
Or11g1 (GeneID 258662),3,54.8,65.9
Fbxo30 (GeneID 71865),1,41.4,42.6
Fbxo30 (GeneID 71865),2,95.3,76.2
Fbxo30 (GeneID 71865),3,102,73.3
Cd226 (GeneID 225825),1,101,110
Cd226 (GeneID 225825),2,70.3,61.8
Cd226 (GeneID 225825),3,100,113
Tox4 (GeneID 268741),1,36.1,71.6
Tox4 (GeneID 268741),2,54.6,55.6
Tox4 (GeneID 268741),3,74.9,77.1
Cbx6 (GeneID 494448),1,84.2,88.3
Cbx6 (GeneID 494448),2,87.3,76.7
Cbx6 (GeneID 494448),3,61.1,63.4
Or5t16 (GeneID 258584),1,91,75.3
Or5t16 (GeneID 258584),2,73.8,79.5
Or5t16 (GeneID 258584),3,68.4,94.5
Ccne1 (GeneID 12447),1,40.5,65
Ccne1 (GeneID 12447),2,117,94.6
Triap1 (GeneID 69076),1,99.8,97.7
Triap1 (GeneID 69076),2,60,68.6
Triap1 (GeneID 69076),3,113,71.9
Gpt (GeneID 76282),1,46.4,81.1
Gpt (GeneID 76282),2,74.1,72.7
Gpt (GeneID 76282),3,78.1,75.9
Hand1 (GeneID 15110),1,33.1,59.6
Hand1 (GeneID 15110),2,94.2,85.3
Smad3 (GeneID 17127),1,65.4,51.3
Smad3 (GeneID 17127),2,77.7,79
Smad3 (GeneID 17127),3,100,86
Ola1 (GeneID 67059),1,69.2,71.7
Ola1 (GeneID 67059),2,68.2,58.2
Ola1 (GeneID 67059),3,53.8,76.7
Wdr77 (GeneID 70465),1,54.7,72.7
Wdr77 (GeneID 70465),2,74.9,73.2
Wdr77 (GeneID 70465),3,72.5,75.4
Cand2 (GeneID 67088),1,0,19.2
Cand2 (GeneID 67088),2,81.5,87
Zfp119a (GeneID 104349),1,42.3,43.7
Zfp119a (GeneID 104349),2,67.5,68.5
Zfp119a (GeneID 104349),3,31.5,43.3
Rlig1 (GeneID 68281),1,98.1,95.5
Rlig1 (GeneID 68281),2,85.1,73.8
Rlig1 (GeneID 68281),3,61.9,84
Adam34 (GeneID 252866),1,74.3,69.4
Adam34 (GeneID 252866),2,66.9,47.5
Adam34 (GeneID 252866),3,74.3,94.6
Slc25a36 (GeneID 192287),1,128 (active),143
Slc25a36 (GeneID 192287),2,92.6,90.3
Slc25a36 (GeneID 192287),3,77.9,63.4
Stpg2 (GeneID 381476),1,62.8,59.9
Stpg2 (GeneID 381476),2,51.6,67.7
Stpg2 (GeneID 381476),3,48.7,71.7
Or9e1 (GeneID 258530),1,43.6,39.6
Or9e1 (GeneID 258530),2,88.9,71
Or9e1 (GeneID 258530),3,54.7,60.6
Pank1 (GeneID 75735),1,86.8,67.1
Pank1 (GeneID 75735),2,80.6,75.8
Pank1 (GeneID 75735),3,83,89.8
Traf1 (GeneID 22029),1,71.5,77.9
Traf1 (GeneID 22029),2,70.6,51.5
Traf1 (GeneID 22029),3,48.5,53.5

As entered above:
Value for Cbx6 (GeneID 494448) #1 in “viability (ATP), % of control”: 88.3
Result of Sf3a2 (GeneID 20222) #1 in “GFP, % of control”: 74.9
Or9e1 (GeneID 258530) #1, viability (ATP), % of control → 39.6
Or5t16 (GeneID 258584) #3, GFP, % of control → 68.4
Ola1 (GeneID 67059) #3, viability (ATP), % of control = 76.7
Under “GFP, % of control”, Cbx6 (GeneID 494448) #2 is entered as 87.3
